Patent US20070259402A1
These are yes or no findings as the source states them, for the method shown. Some results given as binding are weak or reduced against the parent protein; the word gives no strength.

Key:
[1] = target: proFIX-Fc homodimer (FIX-Fc dimer retaining the propeptide) (human); assay: protein A purification followed by SDS-PAGE, CHO line with PC7-SOL, FIG. 5
[2] = target: FIX-Fc homodimer, propeptide removed (human); assay: protein A purification followed by SDS-PAGE, CHO line with PACE-SOL, FIG. 5

protein A (protein A-Sepharose / MabSelect) (from UniProt P38507 37-327)
binding [1]: binds
binding [2]: binds
